# The supplement of paper PMC12067093, “Discovery and optimisation of a covalent ligand for TRIM25 and its application to targeted protein ubiquitination” (Chemical Science, 2025)
# The other results are listed elsewhere or left out.
# Compound: Cc1cc(ccc1-c1ccccc1)C(=O)N1CCCN(CC1)C(=O)CCl [compound 10]
# Test: probe-labelled cysteine peptide fold change vs DMSO (competition) (log2 fold change); higher = less target engagement (more negative = stronger competition)
# Conditions: 10 µM; THP-1; incubation time: 4 h
# 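Further: competitive profiling in live THP-1 cells: cysteine peptides tagged with an iodoacetamide desthiobiotin (IA-DTB) probe, intensity after compound treatment relative to DMSO-treated cells.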
row,Target,probe-labelled cysteine peptide fold change
1,RASSF4_Q9H2L5_5_EDCLPSSHVPISDSK (UniProt Q9H2L5),-0.207
2,RCC1L_Q96I51_401_CGLSHFAALTNK (UniProt Q96I51),-0.101
3,RARS_P54136_293_AYQCVVLLQGK (UniProt P54136),0.0372
4,RBM39_Q14498_478_CPSIAAAIAAVNALHGR (UniProt Q14498),-0.0988
5,RCC1L_Q96I51_401_CGLSHFAALTNKGELFVWGK (UniProt Q96I51),-0.192
6,RBBP5_Q15291_126_VLVCPMK (UniProt Q15291),0.136
7,RCCD1_A6NED2_42_AGVDICR (UniProt A6NED2),-0.0414
8,RECQL4_O94761_636_MGVHCFLGLTATATR (UniProt O94761),0.00652
9,RANBP2_P49792_1375_CVSCQNLNPSNK (UniProt P49792),0.081
10,RBBP6_Q7Z6E9_27_LNYDTVTFDGLHISLCDLK (UniProt Q7Z6E9),0.127
11,RBM28_Q9NW13_97_NENSECPK (UniProt Q9NW13),-0.0194
12,RCHY1_Q96PM5_148_QNCPICLEDIHTSR (UniProt Q96PM5),0.358
13,RCHY1_Q96PM5_172_TCYEEMLK (UniProt Q96PM5),0.00802
14,RALGAPB_Q86X10_278_VPDEDASLIPPEMDNECVAQTWFR (UniProt Q86X10),-0.15
15,RALGAPA1_Q6GYQ0_424_QAFLLPICEAAAMR (UniProt Q6GYQ0),0.0376
16,RANBP2_P49792_3032_EVADCFK (UniProt P49792),0.00151
17,RASAL3_Q86YV0_447_LCGALEPALPAQAK (UniProt Q86YV0),0.184
18,RCHY1_Q96PM5_164_VVAHVLPCGHLLHR (UniProt Q96PM5),-0.206
19,RB1CC1_Q8TDY2_603_VPLLCDFEPLHQHVLALHNLVK (UniProt Q8TDY2),-0.156
20,RCE1_Q9Y256_314_LYGSLPLCVLLER (UniProt Q9Y256),-0.0215

row,Target,probe-labelled cysteine peptide fold change
1,RB1_P06400_438_AVGQGCVEIGSQR (UniProt P06400),-0.208
2,RBPJ_Q06330_72_FFCPPPCVYLMGSGWK (UniProt Q06330),-0.103
3,RDH10_Q8IZV5_170_TMMVNCHAHFWTTK (UniProt Q8IZV5),-0.0346
4,RC3H1_Q5TC82_1049_ELSMENQCSLDMK (UniProt Q5TC82),-0.342
5,RCAN3_Q9UKA8_173_QSEDAMPVINYDLLCAVSK (UniProt Q9UKA8),0.00859
6,RAP1GDS1_P52306_350_NDANCIHMVDNGIVEK (UniProt P52306),-0.0927
7,RANBP2_P49792_815_MICQQVEAIKK (UniProt P49792),-0.0292
8,RBBP4_Q09028_203_EGYGLSWNPNLSGHLLSASDDHTICLWDISAVPK (UniProt Q09028),0.181
9,RBMXL1_Q96E39_338_SDLYSSCDR (UniProt Q96E39),0.12
10,RANGAP1_P46060_169_ILAAALTECHRK (UniProt P46060),-0.159
11,RASSF4_Q9H2L5_236_DCEYPLISR (UniProt Q9H2L5),-0.0856
12,RARA_P10276_130_NCIINKVTR (UniProt P10276),0.25
13,RDH13_Q8NBN7_30_DYVTGGACPSK (UniProt Q8NBN7),-0.162
14,RANBP6_O60518_741_VAAAESMPFLLECAR (UniProt O60518),-0.00411
15,RBM19_Q9Y4C8_293_EPTTCHTVK (UniProt Q9Y4C8),0.0705
16,RANBP2_P49792_1243_ICANHYISPDMK (UniProt P49792),0.0568
17,RBFA_Q8N0V3_136_VSLTPDFSACR (UniProt Q8N0V3),-0.0649
18,RAVER1_Q8IY67_297_VSFCAPGPPGR (UniProt Q8IY67),-0.0288
19,RAP1A_P62834_139+141_QWCNCAFLESSAK (UniProt P62834),0.175

# Same assay, conditions: 50 µM; THP-1; incubation time: 4 h
row,Target,probe-labelled cysteine peptide fold change
1,RASSF4_Q9H2L5_5_EDCLPSSHVPISDSK (UniProt Q9H2L5),-0.0576
2,RCC1L_Q96I51_401_CGLSHFAALTNK (UniProt Q96I51),-0.182
3,RARS_P54136_293_AYQCVVLLQGK (UniProt P54136),0.14
4,RBM39_Q14498_478_CPSIAAAIAAVNALHGR (UniProt Q14498),-0.00341
5,RCC1L_Q96I51_401_CGLSHFAALTNKGELFVWGK (UniProt Q96I51),-0.717
6,RBBP5_Q15291_126_VLVCPMK (UniProt Q15291),0.0339
7,RCCD1_A6NED2_42_AGVDICR (UniProt A6NED2),-0.338
8,RECQL4_O94761_636_MGVHCFLGLTATATR (UniProt O94761),-0.192
9,RANBP2_P49792_1375_CVSCQNLNPSNK (UniProt P49792),-0.112
10,RBBP6_Q7Z6E9_27_LNYDTVTFDGLHISLCDLK (UniProt Q7Z6E9),0.255
11,RBM28_Q9NW13_97_NENSECPK (UniProt Q9NW13),0.16
12,RCHY1_Q96PM5_148_QNCPICLEDIHTSR (UniProt Q96PM5),0.594
13,RCHY1_Q96PM5_172_TCYEEMLK (UniProt Q96PM5),-0.16
14,RALGAPB_Q86X10_278_VPDEDASLIPPEMDNECVAQTWFR (UniProt Q86X10),0.188
15,RALGAPA1_Q6GYQ0_424_QAFLLPICEAAAMR (UniProt Q6GYQ0),0.262
16,RANBP2_P49792_3032_EVADCFK (UniProt P49792),0.0357
17,RASAL3_Q86YV0_447_LCGALEPALPAQAK (UniProt Q86YV0),0.0548
18,RCHY1_Q96PM5_164_VVAHVLPCGHLLHR (UniProt Q96PM5),-0.115
19,RB1CC1_Q8TDY2_603_VPLLCDFEPLHQHVLALHNLVK (UniProt Q8TDY2),-1.09
20,RCE1_Q9Y256_314_LYGSLPLCVLLER (UniProt Q9Y256),0.0721

row,Target,probe-labelled cysteine peptide fold change
1,RB1_P06400_438_AVGQGCVEIGSQR (UniProt P06400),0.131
2,RBPJ_Q06330_72_FFCPPPCVYLMGSGWK (UniProt Q06330),0.182
3,RDH10_Q8IZV5_170_TMMVNCHAHFWTTK (UniProt Q8IZV5),-0.182
4,RC3H1_Q5TC82_1049_ELSMENQCSLDMK (UniProt Q5TC82),-0.469
5,RCAN3_Q9UKA8_173_QSEDAMPVINYDLLCAVSK (UniProt Q9UKA8),0.15
6,RAP1GDS1_P52306_350_NDANCIHMVDNGIVEK (UniProt P52306),0.0269
7,RANBP2_P49792_815_MICQQVEAIKK (UniProt P49792),-0.0925
8,RBBP4_Q09028_203_EGYGLSWNPNLSGHLLSASDDHTICLWDISAVPK (UniProt Q09028),0.0207
9,RBMXL1_Q96E39_338_SDLYSSCDR (UniProt Q96E39),-0.287
10,RANGAP1_P46060_169_ILAAALTECHRK (UniProt P46060),-0.379
11,RASSF4_Q9H2L5_236_DCEYPLISR (UniProt Q9H2L5),-0.0498
12,RARA_P10276_130_NCIINKVTR (UniProt P10276),0.0297
13,RDH13_Q8NBN7_30_DYVTGGACPSK (UniProt Q8NBN7),-0.083
14,RANBP6_O60518_741_VAAAESMPFLLECAR (UniProt O60518),0.196
15,RBM19_Q9Y4C8_293_EPTTCHTVK (UniProt Q9Y4C8),-0.0947
16,RANBP2_P49792_1243_ICANHYISPDMK (UniProt P49792),0.0875
17,RBFA_Q8N0V3_136_VSLTPDFSACR (UniProt Q8N0V3),-0.448
18,RAVER1_Q8IY67_297_VSFCAPGPPGR (UniProt Q8IY67),-0.0827
19,RAP1A_P62834_139+141_QWCNCAFLESSAK (UniProt P62834),-0.552
